Measured values from PMC7400437, “Synthesis and Evaluation of the Antibacterial Activities of 13-Substituted Berberine Derivatives” (Antibiotics, 2020).

Experiments:
[1] = system: BEAS (human airway epithelial cells); assay: Cytotoxic assay on human cells (resazurin); assay type: cell-based; conditions: IC50 on BEAS divided by MIC on S. aureus
Experimental: (§1) The toxicity of berberine and berberine’s derivatives on human cells was evaluated using resazurin assay as previously described. Human cells used were BEAS (ATCC CRL-9609), Caco2 (ATCC HTB-37) and HepG2 (ATCC HB-8065) corresponding respectively to human airway epithelial cells, intestinal epithelial cells and liver cells. Cells were cultured in Dulbecco’s modified essential medium (DMEM) supplemented with 10% fetal bovine serum (FBS), 1% L-glutamine and 1% antibiotics (Thermo Fisher Scientific, Illkirch-Graffenstaden, France). Cells were routinely grown on 25 cm^2 flasks and maintained in a 5% CO2 incubator at 37 °C. For toxicity assay, cells were detached using trypsin–EDTA solution (Thermo Fisher Scientific), counted using Mallasez counting chamber and seeded into 96-well cell culture plates (Greiner bio-One, Dominique Dutscher, Brumath, France) at approximately 10,000 cells per well. The cells were left to grow for 48–72 h at 37 °C in a 5% CO2 incubator until they reached confluence. Media from wells was then aspirated and cells were treated with 100 µL of culture media containing increasing concentrations of berberine or berberine’s derivatives obtained by serial dilution (from 0 to 50 µM, 1:2 dilution), DMSO (0.5% DMSO final concentration) was used as negative control. After 48 h incubation at 37 °C in a 5% CO2 incubator, cell viability was evaluated using resazurin based in vitro toxicity assay kit (Sigma-Aldrich) following manufacturer’s instructions. Briefly, cell wells were emptied, and cells were treated with 100 µL of resazurin diluted 1:10 in sterile PBS containing calcium and magnesium (PBS^++, pH 7.4). After 4 h incubation at 37 °C, fluorescence intensity (excitation wavelength of 530 nm/emission wavelength of 590 nm) was measured using Synergy Mx microplate reader (Biotek). The fluorescence values were normalized by the controls (DMSO treated cells) and expressed as percent viability. The IC50 values of berberine and berberine’s derivatives on cell viability (i.e., the concentration of derivative causing a reduction of 50% of the cell viability) were calculated using GraphPad® Prism 7 software (San Diego, CA, USA). t-Test and two ways ANOVA analyses were used to address the significant differences between mean values with significance set at p < 0.05.

[2] = system: HepG2 (human liver cells); assay: Cytotoxic assay on human cells (resazurin); assay type: cell-based; conditions: IC50 on HEPG2 divided by MIC on S. aureus
Experimental: as §1

Row | SMILES | therapeutic index BEAS [1] | therapeutic index HEPG2 [2]
1 | COc1ccc2c(Cc3ccc(CI)cc3)c3[n+](cc2c1OC)CCc1cc2c(cc1-3)OCO2 [Compound 8, 13-(4-Iodomethylbenzyl)Berberine] | 3.74 | 260.30
2 | COc1cc(C(=O)Cc2c3[n+](cc4c(OC)c(OC)ccc24)CCc2cc4c(cc2-3)OCO4)cc(OC)c1OC(=O)c1ccccc1 [Compound 16, 4-[2-(Berberin-13-yl)acetyl]-2,6-dimethoxyphenyl Benzoate] | 13.79 | 72.14
3 | COc1ccc2c(CC(=O)c3ccc(OC(=O)c4ccccc4)cc3OC(=O)c3ccccc3)c3[n+](cc2c1OC)CCc1cc2c(cc1-3)OCO2 [Compound 17, 4-[2-(Berberin-13-yl)acetyl]-3-(benzoyloxy)phenyl Benzoate] | 6.78 | 342.00
4 | COc1ccc2c(Cc3ccc(/C=C/C(=O)NCCc4ccc(S(N)(=O)=O)cc4)cc3)c3[n+](cc2c1OC)CCc1cc2c(cc1-3)OCO2 [Compound 23, (2E)-3-{4-[(Berberin-13-yl)methyl]phenyl}-N-[2-(4-sulfamoylphenyl)ethyl]prop-2-enamide] | 12.66 | 206.00
5 | COc1ccc(C(=O)/C=C/c2ccc(Cc3c4[n+](cc5c(OC)c(OC)ccc35)CCc3cc5c(cc3-4)OCO5)cc2)c(O)c1 [Compound 25, (2E)-3-{4-[(Berberin-13-yl)methyl]phenyl}-1-(2-hydroxy-4-methoxyphenyl)prop-2-en-1-one] | 2.83 | 39.39
6 | COc1ccc2c(=O)cc(-c3ccc(Cc4c5[n+](cc6c(OC)c(OC)ccc46)CCc4cc6c(cc4-5)OCO6)cc3)oc2c1 [Compound 26, 2-{4-[(Berberin-13-yl)methyl]phenyl}-7-methoxy-4H-chromen-4-one] | 41.52 | 180.70
